These results are taken from PMC5824423.

No constants are given. Whether binding was seen depends on the method and setting. In cells and extracts the contact can be indirect. Some results given as binding are weak or reduced against the parent protein; the word gives no strength.

Assay [1] concerns the target T1, four and a half LIM domain protein 2 (FHL2) (rat (endogenous in NRK-52E)) (UniProt O35115).
T1 sequence: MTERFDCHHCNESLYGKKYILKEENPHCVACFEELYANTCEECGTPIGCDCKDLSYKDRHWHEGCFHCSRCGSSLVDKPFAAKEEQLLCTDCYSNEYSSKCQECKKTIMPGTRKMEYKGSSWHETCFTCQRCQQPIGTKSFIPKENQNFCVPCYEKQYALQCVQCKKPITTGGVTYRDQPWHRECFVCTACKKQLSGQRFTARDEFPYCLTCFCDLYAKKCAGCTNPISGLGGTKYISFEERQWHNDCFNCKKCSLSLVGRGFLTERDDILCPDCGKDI
As to the kind of experiment: co-IP; whole cell lysates of NRK-52E cells with or without TGF-β1 treatment; nondenaturing lysis buffer (1% Triton X-100, 0.01 M Tris-HCl pH 8.0, 0.14 M NaCl); IP with anti-FHL2 or anti-β-catenin at 4°C overnight, protein A/G Plus-agarose; blot for the other protein.

Assay [2] addresses T1, four and a half LIM domain protein 2 (FHL2) (rat (endogenous in NRK-52E)). As to the kind of experiment: co-IP; nuclear protein extracted from NRK-52E cells with or without TGF-β1 treatment; IP with anti-FHL2, blot for β-catenin.
Assay [3] has as its target T2, β-catenin (rat (endogenous in NRK-52E)) (UniProt Q9WU82).
T2 sequence: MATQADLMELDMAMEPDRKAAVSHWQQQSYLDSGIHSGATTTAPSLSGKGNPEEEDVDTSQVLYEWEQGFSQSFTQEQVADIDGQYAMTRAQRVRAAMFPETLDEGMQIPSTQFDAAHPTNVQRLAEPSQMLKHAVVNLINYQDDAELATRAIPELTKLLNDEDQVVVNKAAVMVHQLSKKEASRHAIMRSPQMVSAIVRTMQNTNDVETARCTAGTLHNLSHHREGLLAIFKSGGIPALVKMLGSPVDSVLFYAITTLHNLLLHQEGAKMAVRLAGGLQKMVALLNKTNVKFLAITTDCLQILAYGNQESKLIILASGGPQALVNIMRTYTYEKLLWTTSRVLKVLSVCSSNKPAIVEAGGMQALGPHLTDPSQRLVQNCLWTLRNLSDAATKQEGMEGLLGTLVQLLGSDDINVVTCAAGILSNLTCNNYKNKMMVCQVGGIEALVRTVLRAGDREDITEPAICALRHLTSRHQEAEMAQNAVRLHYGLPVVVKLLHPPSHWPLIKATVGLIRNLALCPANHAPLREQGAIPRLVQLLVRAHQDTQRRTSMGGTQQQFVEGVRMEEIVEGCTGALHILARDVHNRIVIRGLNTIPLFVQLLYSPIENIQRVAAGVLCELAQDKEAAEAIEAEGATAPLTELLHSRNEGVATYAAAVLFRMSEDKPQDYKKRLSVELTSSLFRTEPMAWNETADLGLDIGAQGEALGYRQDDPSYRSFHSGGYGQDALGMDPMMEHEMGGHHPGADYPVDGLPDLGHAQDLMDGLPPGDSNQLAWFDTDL
Put plainly: co-IP; whole cell lysates of NRK-52E cells with or without TGF-β1 treatment; nondenaturing lysis buffer (1% Triton X-100, 0.01 M Tris-HCl pH 8.0, 0.14 M NaCl); IP with anti-FHL2 or anti-β-catenin at 4°C overnight, protein A/G Plus-agarose; blot for the other protein.

B1: β-catenin (protein, UniProt Q9WU82 1-781)
chain: MATQADLMELDMAMEPDRKAAVSHWQQQSYLDSGIHSGATTTAPSLSGKGNPEEEDVDTSQVLYEWEQGFSQSFTQEQVADIDGQYAMTRAQRVRAAMFPETLDEGMQIPSTQFDAAHPTNVQRLAEPSQMLKHAVVNLINYQDDAELATRAIPELTKLLNDEDQVVVNKAAVMVHQLSKKEASRHAIMRSPQMVSAIVRTMQNTNDVETARCTAGTLHNLSHHREGLLAIFKSGGIPALVKMLGSPVDSVLFYAITTLHNLLLHQEGAKMAVRLAGGLQKMVALLNKTNVKFLAITTDCLQILAYGNQESKLIILASGGPQALVNIMRTYTYEKLLWTTSRVLKVLSVCSSNKPAIVEAGGMQALGPHLTDPSQRLVQNCLWTLRNLSDAATKQEGMEGLLGTLVQLLGSDDINVVTCAAGILSNLTCNNYKNKMMVCQVGGIEALVRTVLRAGDREDITEPAICALRHLTSRHQEAEMAQNAVRLHYGLPVVVKLLHPPSHWPLIKATVGLIRNLALCPANHAPLREQGAIPRLVQLLVRAHQDTQRRTSMGGTQQQFVEGVRMEEIVEGCTGALHILARDVHNRIVIRGLNTIPLFVQLLYSPIENIQRVAAGVLCELAQDKEAAEAIEAEGATAPLTELLHSRNEGVATYAAAVLFRMSEDKPQDYKKRLSVELTSSLFRTEPMAWNETADLGLDIGAQGEALGYRQDDPSYRSFHSGGYGQDALGMDPMMEHEMGGHHPGADYPVDGLPDLGHAQDLMDGLPPGDSNQLAWFDTDL
With B1, the binding result in assay [1] and in assay [2] was “binds” each time.

B2: four and a half LIM domain protein 2 (FHL2) (protein, UniProt O35115 1-279)
chain: MTERFDCHHCNESLYGKKYILKEENPHCVACFEELYANTCEECGTPIGCDCKDLSYKDRHWHEGCFHCSRCGSSLVDKPFAAKEEQLLCTDCYSNEYSSKCQECKKTIMPGTRKMEYKGSSWHETCFTCQRCQQPIGTKSFIPKENQNFCVPCYEKQYALQCVQCKKPITTGGVTYRDQPWHRECFVCTACKKQLSGQRFTARDEFPYCLTCFCDLYAKKCAGCTNPISGLGGTKYISFEERQWHNDCFNCKKCSLSLVGRGFLTERDDILCPDCGKDI
For the molecule B2, the binding entry in assay [3] was “binds”.
